Experimental data from patent US20230183656A1, “METHODS AND COMPOSITIONS FOR PURIFYING ADENO ASSOCIATED VIRUS PARTICLES OR ADENOVIRUSES” (Merck Patent GmbH, priority 2020, published 2023).
For at least one compound, name, drawing or mass did not settle the structure. Some entries share one result that the patent states for a list of compounds.

Experiments:
AAV9 = AAV9 release after cell lysis (titers as in Example 1); assay type: cell-based; details: single detergent, FIG. 5
Description: An AAV2 suspension upstream process is performed including a cell lysis step using various single reagents, like Triton X-100 (T100) or TDAO at various concentrations or 0.5 M NaCl, all at 37° C. The samples were centrifuged at ~13000 g for 5 min at different time points post lysis, and supernatants were removed and stored at -70° C. for assays. Physical titers were measured by enzyme-linked immunosorbent assay (ELISA) using an AAV2 Titration ELISA kit (Progen) following manufacturer’s protocol, genome titers were measured by quantitative PCR (qPCR) targeting a specific sequence within the transfer vector. All reagents and assay protocols are from MilliporeSigma unless otherwise specified. Among all the conditions tested, 0.5 M NaCl was the only one capable of releasing significant amounts of AAV2 at physical titer of e10 vp/mL and genome titer of e9 gc/mL levels (FIG. 1). Moreover, time-dependent effects from 30 min to 90 min post lysis for all 3 single reagents, and concentration-dependent effects from 0.5% to 1% for both single detergents have been observed (FIG. 1).
An AAV9 suspension upstream process is performed as in Example 1 but using both single reagents and double reagents combined with NaCl.

[1] = cited from earlier work

Compound | AAV9 dissociation enhanced compared to 0.5 M NaCl only (AAV9) | CMC [1] | CMC* [1]
Triton X-100 [reference compound] | 2-5 fold | – | –
CCCCCCCCCCCCCC[N+](C)(C)[O-] [TDAO, N,N-Dimethyltertra decylamine N-oxide] | 2-5 fold | 0.0069 wt% | 0.268 mM
